Measurements from patent US5607691A, “Compositions and methods for enhanced drug delivery” (priority 1995, dated 1997).
Counter-ions that a name gives are not always drawn. At least one read-out could not be matched to a standard name with certainty.

Columns and labels:
[1] = cited from earlier work
[2] = type: in vitro ADME, human; conditions: untitled table of digoxin derivatives (position/substituent); assay not given
From the text: Table 4 lists the serum half-lives for several model compounds and two representative pharmaceutical agent-chemical modifier complexes using an in vitro assay system described in the Experimental section below. Of course, the serum half-lives will vary in vivo depending upon the age and health condition of the patient. Each complex comprises a model compound or a pharmaceutical agent, a spacer group, and a chemical modifier. Many of the model compounds utilize 4-nitrophenyl(ethanol, propanol, or cyclohexanol) or 4-nitrophenylethylamine as the "model" pharmaceutical agent. A more complete listing of serum half-lives may be found in the Experimental section below.
General procedure for serum hydrolysis of pharmaceutical agent-modifier complexes
Stock solutions (6 mM) of the pharmaceutical agent-modifier complexes were prepared in ethanol (by vortexing, sonication or warming at 37° C. if necessary). If required for solubility, a drop of dimethylsulfoxide, dimethylformamide or methanol may be added. (Acetonitrile cannot be used because it deactivates the serum enzymes.) […]
Freshly defrosted human serum (3 ml, Sigma) was warmed at 37° C. for five minutes and then 60 μl of the agent-modifier complex stock solution was added with vortexing. […] Half-lives were calculated using the equation […]

SMILES	bound to tissue proteins [1]	Half Life [2]
C[C@H]1O[C@@H](O[C@H]2[C@@H](O)C[C@H](O[C@H]3[C@@H](O)C[C@H](O[C@H]4CC[C@@]5(C)[C@H](CC[C@@H]6[C@@H]5C[C@@H](O)[C@]5(C)[C@@H](C7=CC(=O)OC7)CC[C@]65O)C4)O[C@@H]3C)O[C@@H]2C)C[C@H](O)[C@@H]1O [digoxin, 3β,5β,12β-3-[(O-2,6-dideoxy-β-D-ribohexopyranosyl(1→4)-O-2,6-dideoxy-β-D-ribo-hexopyranosyl-(1→4)-2,6-dideoxy-β-D-ribo-hexopyranosyl)oxy]-12,14-dihydroxycard-20(22)-enolide]	over 90%	
CC1OC(OC2C(C)OC(OC3C(C)OC(OC4CCC5(C)C(CCC6C5CC(OC(=O)OCOC(=O)CCCCC[N+](C)(C)C)C5(C)C(C7=CC(=O)OC7)CCC65O)C4)CC3OC(=O)OCOC(=O)CCCCC[N+](C)(C)C)CC2OC(=O)OCOC(=O)CCCCC[N+](C)(C)C)CC2OC(=O)OC12 (centres unmarked) [digoxin-3',3",12-tris-(6-trimethylaminohexanoyloxymethyl carbonate)-3'",4""-cyclic carbonate, tribromide salt]		14 h
